Results are given in words; binding and its absence hold for the method and conditions named. Binding seen in cells or lysates may run through a third protein. A result given as binding can be weak or reduced; the word gives no strength. Tags and fused reporters may be left off the sequences shown.
Experiments:
DPP9-AFE-YFP (human) = test: co-IP; HEK293T cells co-transfected with YFP-tagged DPP9 isoforms and NLRP1-Flag; NP-40 lysis buffer (50 mM Tris-HCl pH 7.4, 150 mM NaCl, 1% NP-40, 5 mM EDTA); GFP-Trap magnetic agarose beads overnight at 4 °C; blots with α-GFP and α-Flag
[1] = molecular target: DPP9-AFE(L8P)-YFP (human); test: as above

B1: NLRP1-Flag (protein, UniProt Q9C000 1-1473)
chain: MAGGAWGRLACYLEFLKKEELKEFQLLLANKAHSRSSSGETPAQPEKTSGMEVASYLVAQYGEQRAWDLALHTWEQMGLRSLCAQAQEGAGHSPSFPYSPSEPHLGSPSQPTSTAVLMPWIHELPAGCTQGSERRVLRQLPDTSGRRWREISASLLYQALPSSPDHESPSQESPNAPTSTAVLGSWGSPPQPSLAPREQEAPGTQWPLDETSGIYYTEIREREREKSEKGRPPWAAVVGTPPQAHTSLQPHHHPWEPSVRESLCSTWPWKNEDFNQKFTQLLLLQRPHPRSQDPLVKRSWPDYVEENRGHLIEIRDLFGPGLDTQEPRIVILQGAAGIGKSTLARQVKEAWGRGQLYGDRFQHVFYFSCRELAQSKVVSLAELIGKDGTATPAPIRQILSRPERLLFILDGVDEPGWVLQEPSSELCLHWSQPQPADALLGSLLGKTILPEASFLITARTTALQNLIPSLEQARWVEVLGFSESSRKEYFYRYFTDERQAIRAFRLVKSNKELWALCLVPWVSWLACTCLMQQMKRKEKLTLTSKTTTTLCLHYLAQALQAQPLGPQLRDLCSLAAEGIWQKKTLFSPDDLRKHGLDGAIISTFLKMGILQEHPIPLSYSFIHLCFQEFFAAMSYVLEDEKGRGKHSNCIIDLEKTLEAYGIHGLFGASTTRFLLGLLSDEGEREMENIFHCRLSQGRNLMQWVPSLQLLLQPHSLESLHCLYETRNKTFLTQVMAHFEEMGMCVETDMELLVCTFCIKFSRHVKKLQLIEGRQHRSTWSPTMVVLFRWVPVTDAYWQILFSVLKVTRNLKELDLSGNSLSHSAVKSLCKTLRRPRCLLETLRLAGCGLTAEDCKDLAFGLRANQTLTELDLSFNVLTDAGAKHLCQRLRQPSCKLQRLQLVSCGLTSDCCQDLASVLSASPSLKELDLQQNNLDDVGVRLLCEGLRHPACKLIRLGLDQTTLSDEMRQELRALEQEKPQLLIFSRRKPSVMTPTEGLDTGEMSNSTSSLKRQRLGSERAASHVAQANLKLLDVSKIFPIAEIAEESSPEVVPVELLCVPSPASQGDLHTKPLGTDDDFWGPTGPVATEVVDKEKNLYRVHFPVAGSYRWPNTGLCFVMREAVTVEIEFCVWDQFLGEINPQHSWMVAGPLLDIKAEPGAVEAVHLPHFVALQGGHVDTSLFQMAHFKEEGMLLEKPARVELHHIVLENPSFSPLGVLLKMIHNALRFIPVTSVVLLYHRVHPEEVTFHLYLIPSDCSIRKAIDDLEMKFQFVRIHKPPPLTPLYMGCRYTVSGSGSGMLEILPKELELCYRSPGEDQLFSEFYVGHLGSGIRLQVKDKKDETLVWEALVKPGDLMPATTLIPPARIAVPSPLDAPQLLHFVDQYREQLIARVTSVEVVLDKLHGQVLSQEQYERVLAENTRPSQMRKLFSLSQSWDRKCKDGLYQALKETHPHLIMELWEKGSKKGLLPLSS
DPP9-AFE-YFP (human)
  binding: binds
[1]
  binding: binds

Source: article PMC13429693, “Disease-associated genetic variants can cause missense effects in tissue-specific protein isoforms” (Nature Communications, 2026)
